Assay [1] concerns the target T1, CCRL2-Venus (human) (UniProt O00421).
T1 sequence: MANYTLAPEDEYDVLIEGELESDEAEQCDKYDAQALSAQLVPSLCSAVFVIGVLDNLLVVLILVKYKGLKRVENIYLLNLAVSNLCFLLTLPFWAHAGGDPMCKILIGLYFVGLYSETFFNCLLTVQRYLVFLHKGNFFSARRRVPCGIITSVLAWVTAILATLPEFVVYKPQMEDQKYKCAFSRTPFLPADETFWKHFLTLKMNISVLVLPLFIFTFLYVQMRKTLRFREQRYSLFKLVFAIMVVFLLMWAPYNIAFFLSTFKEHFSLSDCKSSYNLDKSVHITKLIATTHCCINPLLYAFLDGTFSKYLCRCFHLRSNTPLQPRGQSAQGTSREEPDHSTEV
In words: FRET or BRET; BRET proximity assay in living HEK293T cells co-transfected with β-arrestin-Rluc and receptor-Venus; PBS plus 0.1% glucose at 25°C; coelenterazine h 5 μM; stimulation with 100 nM chemerin; also with Pertussis toxin pretreatment. A general note: Bioluminescence resonance energy transfer reports proximity on the nanometre scale.

Protein sequences, listed by entry. Tags and fused reporters are not part of them. Residues count along the entry.
UniProt P49407: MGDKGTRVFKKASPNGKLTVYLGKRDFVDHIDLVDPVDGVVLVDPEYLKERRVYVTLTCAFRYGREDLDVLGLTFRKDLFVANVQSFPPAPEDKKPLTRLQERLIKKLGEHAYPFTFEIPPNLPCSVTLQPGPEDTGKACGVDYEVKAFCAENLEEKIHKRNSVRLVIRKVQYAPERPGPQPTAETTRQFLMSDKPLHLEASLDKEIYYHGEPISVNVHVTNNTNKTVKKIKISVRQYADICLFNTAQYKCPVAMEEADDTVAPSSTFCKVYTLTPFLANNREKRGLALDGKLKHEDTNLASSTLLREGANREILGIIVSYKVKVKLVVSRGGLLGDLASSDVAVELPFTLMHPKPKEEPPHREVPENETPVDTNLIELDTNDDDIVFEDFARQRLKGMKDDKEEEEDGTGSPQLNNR
UniProt Q99731, residues 22-98: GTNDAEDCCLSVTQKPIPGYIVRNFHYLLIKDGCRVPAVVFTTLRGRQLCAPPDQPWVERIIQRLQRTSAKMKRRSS
UniProt P32121: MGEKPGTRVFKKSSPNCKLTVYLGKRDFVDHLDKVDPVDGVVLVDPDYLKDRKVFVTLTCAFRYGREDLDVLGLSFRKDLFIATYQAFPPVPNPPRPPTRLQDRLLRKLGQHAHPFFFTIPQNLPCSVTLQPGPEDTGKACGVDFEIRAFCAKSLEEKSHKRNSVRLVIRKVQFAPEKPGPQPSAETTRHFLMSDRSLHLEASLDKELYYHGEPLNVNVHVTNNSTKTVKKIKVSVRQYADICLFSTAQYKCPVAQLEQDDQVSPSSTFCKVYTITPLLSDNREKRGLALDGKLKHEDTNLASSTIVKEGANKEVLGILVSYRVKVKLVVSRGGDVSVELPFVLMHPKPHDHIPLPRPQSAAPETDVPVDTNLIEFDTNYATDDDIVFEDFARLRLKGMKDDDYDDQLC

Assay [2] addresses T2, GPR1-Venus (human) (UniProt P46091).
T2 sequence: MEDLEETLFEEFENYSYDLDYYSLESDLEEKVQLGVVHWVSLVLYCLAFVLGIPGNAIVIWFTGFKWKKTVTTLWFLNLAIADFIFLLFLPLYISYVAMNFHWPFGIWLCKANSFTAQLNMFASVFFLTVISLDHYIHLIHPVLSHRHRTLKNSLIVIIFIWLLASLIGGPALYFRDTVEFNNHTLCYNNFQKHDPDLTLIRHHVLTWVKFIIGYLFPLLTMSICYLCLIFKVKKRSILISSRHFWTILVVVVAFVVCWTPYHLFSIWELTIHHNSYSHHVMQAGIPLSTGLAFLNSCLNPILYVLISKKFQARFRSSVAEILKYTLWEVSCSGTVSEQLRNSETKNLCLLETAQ
The description is as above.

Assay [3] concerns the target T3, CMKLR1-Venus (human) (UniProt Q99788).
T3 sequence: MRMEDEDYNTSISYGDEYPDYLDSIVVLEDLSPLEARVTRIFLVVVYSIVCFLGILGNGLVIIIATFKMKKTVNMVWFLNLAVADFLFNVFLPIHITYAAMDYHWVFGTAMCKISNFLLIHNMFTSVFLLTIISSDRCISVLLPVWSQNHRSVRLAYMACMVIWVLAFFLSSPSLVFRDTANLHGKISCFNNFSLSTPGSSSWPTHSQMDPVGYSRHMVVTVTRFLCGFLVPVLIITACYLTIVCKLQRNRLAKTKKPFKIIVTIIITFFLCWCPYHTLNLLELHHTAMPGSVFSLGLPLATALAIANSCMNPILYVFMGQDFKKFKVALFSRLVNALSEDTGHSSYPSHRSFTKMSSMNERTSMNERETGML
The assay is described as above.

In assay [4] the target is T4, CCRL2 (human, UniProt O00421 1-344).
T4 sequence (looked up): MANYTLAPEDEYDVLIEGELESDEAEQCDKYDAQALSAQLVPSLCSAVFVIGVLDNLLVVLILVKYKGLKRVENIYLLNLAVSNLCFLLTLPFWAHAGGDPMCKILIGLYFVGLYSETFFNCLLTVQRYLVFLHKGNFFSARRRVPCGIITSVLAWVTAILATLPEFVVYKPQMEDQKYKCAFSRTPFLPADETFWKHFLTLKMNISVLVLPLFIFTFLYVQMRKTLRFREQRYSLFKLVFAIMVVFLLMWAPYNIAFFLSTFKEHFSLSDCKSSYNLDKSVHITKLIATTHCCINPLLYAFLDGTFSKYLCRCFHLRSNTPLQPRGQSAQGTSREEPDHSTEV
In words: radioligand binding; CHO-K1 cells expressing CCRL2 with 0.1 nM [125I]-CCL19, with or without an excess (300 nM) of unlabeled chemerin, CCL5, CCL19 or CCL21; only the binder purified.

Assay [5] has as its target T5, CMKLR1 (human) (UniProt Q99788).
T5 sequence: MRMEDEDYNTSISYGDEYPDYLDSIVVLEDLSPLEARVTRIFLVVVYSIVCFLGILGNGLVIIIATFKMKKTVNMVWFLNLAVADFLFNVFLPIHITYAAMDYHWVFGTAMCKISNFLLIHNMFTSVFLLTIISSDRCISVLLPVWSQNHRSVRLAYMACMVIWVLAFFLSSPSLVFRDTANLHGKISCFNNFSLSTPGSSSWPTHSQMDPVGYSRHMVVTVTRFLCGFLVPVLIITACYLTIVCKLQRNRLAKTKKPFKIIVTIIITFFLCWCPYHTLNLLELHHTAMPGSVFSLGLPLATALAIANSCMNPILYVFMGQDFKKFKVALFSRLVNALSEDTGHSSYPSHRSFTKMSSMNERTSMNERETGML
In words: radioligand binding; CHO-K1 cells expressing the receptor with 0.1 nM [125I]-[145–157]-chemerin as tracer, alone or with an excess or increasing concentrations of unlabelled chemerin or chemerin 9; 50 mM HEPES pH 7.4, 1 mM CaCl2, 5 mM MgCl2, 250 mM sucrose, 0.5% BSA; 30 min at room temperature; filtration; only the binder purified.

Assay [6] has as its target T6, GPR1 (human, UniProt P46091 1-355).
T6 construct: GPR1, human chemerin receptor, expressed on CHO-K1 cells; The functional rows with G protein biosensors (HEK293T, transfected) and with MEF cells also use this molecule; source: CHO-K1, stably expressing (Clone 8), on cells
T6 sequence (looked up): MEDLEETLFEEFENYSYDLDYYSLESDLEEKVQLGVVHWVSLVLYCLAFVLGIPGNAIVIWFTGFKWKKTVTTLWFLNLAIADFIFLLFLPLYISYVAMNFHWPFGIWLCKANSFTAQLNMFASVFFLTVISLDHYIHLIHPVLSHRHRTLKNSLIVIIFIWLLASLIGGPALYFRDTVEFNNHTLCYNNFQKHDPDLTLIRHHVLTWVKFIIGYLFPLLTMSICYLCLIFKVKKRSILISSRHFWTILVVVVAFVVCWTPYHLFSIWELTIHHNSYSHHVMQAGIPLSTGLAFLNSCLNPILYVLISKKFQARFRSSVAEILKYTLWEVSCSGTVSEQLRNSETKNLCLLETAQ
The assay is described as above.

Assay [7] deals with T4, CCRL2. Described as above.

These are yes or no findings as the source states them, for the method shown. For part of these data: Binding seen in cells or lysates may run through a third protein. Some binding calls cover weakened binding; strength is not graded here.

For the molecule “β-arrestin1-Rluc (from UniProt P49407 1-418)”, the binding result in assay [1] is listed as “no binding”; in assay [2] it was “binds”; in assay [3], “binds”.

With “[125I]-CCL19 (from UniProt Q99731 22-98) (ligand)”, in assay [4], the binding result was “binds weakly”.

Consider “β-arrestin2-Rluc (from UniProt P32121 1-409)”, for which the binding result in assay [1] is given as “no binding”; in assay [3] it was “binds”.

On to PHSFYFPGQFAFS (125I label (residue not stated)) [[125I]-[145–157]-chemerin], for which the binding result in assay [5] is on record as “binds”; in assay [6] it was “binds”; in assay [7] it was “no binding (tested: 0.1 nM)”.

The record behind these values is PMC5055294 (PLoS ONE, 2016).
